{"sequences": {"note": "The chains behind the UniProt entries cited, without tags or fusion partners. Where a name states a change or a piece, a line headed by the entry shows the natural chain unless it says otherwise.", "UniProt O14787": "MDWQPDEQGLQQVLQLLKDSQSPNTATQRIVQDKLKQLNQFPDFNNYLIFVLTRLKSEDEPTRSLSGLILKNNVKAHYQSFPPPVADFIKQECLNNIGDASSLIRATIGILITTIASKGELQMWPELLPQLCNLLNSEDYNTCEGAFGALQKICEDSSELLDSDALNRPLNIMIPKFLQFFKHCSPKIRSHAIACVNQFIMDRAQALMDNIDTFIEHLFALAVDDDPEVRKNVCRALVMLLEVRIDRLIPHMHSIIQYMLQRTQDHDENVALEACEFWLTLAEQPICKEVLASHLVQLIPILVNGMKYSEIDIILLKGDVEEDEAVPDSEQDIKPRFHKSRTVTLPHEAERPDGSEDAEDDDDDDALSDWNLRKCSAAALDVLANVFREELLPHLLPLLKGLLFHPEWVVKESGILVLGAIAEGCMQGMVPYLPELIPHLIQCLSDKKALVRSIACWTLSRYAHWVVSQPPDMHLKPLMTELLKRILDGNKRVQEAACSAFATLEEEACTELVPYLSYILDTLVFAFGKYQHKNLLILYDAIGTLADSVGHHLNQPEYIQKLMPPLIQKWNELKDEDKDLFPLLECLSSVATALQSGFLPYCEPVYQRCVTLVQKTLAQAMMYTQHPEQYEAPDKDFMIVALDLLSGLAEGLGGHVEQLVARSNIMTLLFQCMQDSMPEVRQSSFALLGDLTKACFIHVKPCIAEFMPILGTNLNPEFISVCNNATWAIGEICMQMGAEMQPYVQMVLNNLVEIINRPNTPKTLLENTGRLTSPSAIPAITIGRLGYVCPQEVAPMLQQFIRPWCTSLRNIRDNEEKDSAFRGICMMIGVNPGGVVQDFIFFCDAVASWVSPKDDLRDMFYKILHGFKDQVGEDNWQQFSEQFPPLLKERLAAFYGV", "UniProt Q8TBZ6": "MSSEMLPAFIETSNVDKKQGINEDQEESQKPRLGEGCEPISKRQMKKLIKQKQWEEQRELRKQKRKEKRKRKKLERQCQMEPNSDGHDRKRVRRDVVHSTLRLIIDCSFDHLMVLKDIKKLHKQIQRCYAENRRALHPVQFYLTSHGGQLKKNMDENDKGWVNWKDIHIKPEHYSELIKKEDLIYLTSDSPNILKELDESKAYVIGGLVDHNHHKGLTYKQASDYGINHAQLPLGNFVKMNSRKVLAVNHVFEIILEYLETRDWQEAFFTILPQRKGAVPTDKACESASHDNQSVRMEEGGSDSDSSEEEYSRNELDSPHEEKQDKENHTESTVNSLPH", "UniProt Q15629": "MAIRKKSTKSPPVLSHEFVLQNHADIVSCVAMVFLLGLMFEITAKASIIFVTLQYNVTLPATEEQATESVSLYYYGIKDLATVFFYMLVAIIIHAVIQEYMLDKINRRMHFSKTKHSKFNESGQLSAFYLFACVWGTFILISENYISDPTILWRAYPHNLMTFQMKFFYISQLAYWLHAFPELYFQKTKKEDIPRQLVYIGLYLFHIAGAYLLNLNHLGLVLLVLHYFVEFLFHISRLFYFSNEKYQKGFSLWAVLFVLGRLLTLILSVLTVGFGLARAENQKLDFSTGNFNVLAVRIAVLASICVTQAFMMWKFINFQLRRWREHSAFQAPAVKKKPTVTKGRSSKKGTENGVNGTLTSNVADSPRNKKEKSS", "UniProt Q92973": "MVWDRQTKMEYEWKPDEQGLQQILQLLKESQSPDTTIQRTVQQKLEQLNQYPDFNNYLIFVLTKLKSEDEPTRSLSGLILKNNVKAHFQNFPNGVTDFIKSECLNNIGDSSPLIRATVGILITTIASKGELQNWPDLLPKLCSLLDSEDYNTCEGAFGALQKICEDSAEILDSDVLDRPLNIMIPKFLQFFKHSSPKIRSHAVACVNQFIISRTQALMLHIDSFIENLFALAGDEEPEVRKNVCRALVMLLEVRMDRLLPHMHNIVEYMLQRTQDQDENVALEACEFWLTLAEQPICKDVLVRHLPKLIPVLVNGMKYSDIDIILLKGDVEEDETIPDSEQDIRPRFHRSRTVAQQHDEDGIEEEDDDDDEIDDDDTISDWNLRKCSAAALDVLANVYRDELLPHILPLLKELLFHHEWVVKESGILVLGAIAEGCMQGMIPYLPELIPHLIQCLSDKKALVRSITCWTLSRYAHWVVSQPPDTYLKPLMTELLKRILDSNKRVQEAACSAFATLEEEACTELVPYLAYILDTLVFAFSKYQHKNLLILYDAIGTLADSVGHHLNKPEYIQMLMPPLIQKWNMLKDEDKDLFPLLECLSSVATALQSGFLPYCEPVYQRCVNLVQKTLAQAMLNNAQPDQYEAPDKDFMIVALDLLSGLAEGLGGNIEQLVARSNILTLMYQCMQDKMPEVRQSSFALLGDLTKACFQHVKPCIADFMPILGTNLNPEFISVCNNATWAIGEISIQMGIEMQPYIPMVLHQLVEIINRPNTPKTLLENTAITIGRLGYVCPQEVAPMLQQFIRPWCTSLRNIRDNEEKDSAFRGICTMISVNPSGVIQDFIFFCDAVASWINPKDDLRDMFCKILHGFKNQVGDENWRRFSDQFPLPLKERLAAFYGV", "UniProt Q96DX7": "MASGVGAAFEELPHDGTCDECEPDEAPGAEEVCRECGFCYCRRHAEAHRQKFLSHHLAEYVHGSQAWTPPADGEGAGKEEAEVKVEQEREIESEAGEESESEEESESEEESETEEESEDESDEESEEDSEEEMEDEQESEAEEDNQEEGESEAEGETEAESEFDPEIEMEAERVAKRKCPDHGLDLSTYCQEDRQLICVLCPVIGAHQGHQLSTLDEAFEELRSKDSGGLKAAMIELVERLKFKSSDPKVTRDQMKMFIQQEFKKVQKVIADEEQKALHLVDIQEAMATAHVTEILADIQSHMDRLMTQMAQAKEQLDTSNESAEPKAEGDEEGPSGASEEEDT", "UniProt Q9H4I3": "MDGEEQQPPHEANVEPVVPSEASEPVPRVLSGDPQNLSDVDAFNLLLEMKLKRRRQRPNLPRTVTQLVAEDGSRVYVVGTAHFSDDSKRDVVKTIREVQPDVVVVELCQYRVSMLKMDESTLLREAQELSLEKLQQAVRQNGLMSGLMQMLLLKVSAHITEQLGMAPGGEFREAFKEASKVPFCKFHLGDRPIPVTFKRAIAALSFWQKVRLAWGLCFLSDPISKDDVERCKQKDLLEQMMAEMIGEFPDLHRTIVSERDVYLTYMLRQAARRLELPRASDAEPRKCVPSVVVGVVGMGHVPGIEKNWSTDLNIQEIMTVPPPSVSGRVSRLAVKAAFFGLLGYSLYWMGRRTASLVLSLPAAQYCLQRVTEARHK", "UniProt Q9C037": "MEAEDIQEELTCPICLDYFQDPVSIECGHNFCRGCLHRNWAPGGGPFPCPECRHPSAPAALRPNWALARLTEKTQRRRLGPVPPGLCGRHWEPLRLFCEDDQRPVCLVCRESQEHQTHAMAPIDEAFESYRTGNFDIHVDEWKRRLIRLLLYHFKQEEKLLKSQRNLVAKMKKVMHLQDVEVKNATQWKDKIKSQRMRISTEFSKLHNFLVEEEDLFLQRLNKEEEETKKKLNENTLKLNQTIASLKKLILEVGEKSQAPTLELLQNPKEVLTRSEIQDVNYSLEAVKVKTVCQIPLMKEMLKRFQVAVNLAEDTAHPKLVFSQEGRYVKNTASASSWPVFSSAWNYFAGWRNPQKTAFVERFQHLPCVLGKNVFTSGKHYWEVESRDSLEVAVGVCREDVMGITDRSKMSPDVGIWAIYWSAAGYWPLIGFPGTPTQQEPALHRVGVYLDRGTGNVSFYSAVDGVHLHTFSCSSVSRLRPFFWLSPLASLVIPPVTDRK", "UniProt O75865, whole entry, looked up": "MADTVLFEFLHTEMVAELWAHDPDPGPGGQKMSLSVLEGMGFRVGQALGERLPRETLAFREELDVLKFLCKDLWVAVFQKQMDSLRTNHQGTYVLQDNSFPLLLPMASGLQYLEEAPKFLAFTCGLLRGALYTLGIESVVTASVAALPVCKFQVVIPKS", "UniProt Q9Y5R8, whole entry, looked up": "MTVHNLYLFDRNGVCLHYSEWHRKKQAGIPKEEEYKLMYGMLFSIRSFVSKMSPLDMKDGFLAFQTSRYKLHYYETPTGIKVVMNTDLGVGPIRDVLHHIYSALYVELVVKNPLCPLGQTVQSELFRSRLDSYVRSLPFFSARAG", "UniProt Q9UKE5": "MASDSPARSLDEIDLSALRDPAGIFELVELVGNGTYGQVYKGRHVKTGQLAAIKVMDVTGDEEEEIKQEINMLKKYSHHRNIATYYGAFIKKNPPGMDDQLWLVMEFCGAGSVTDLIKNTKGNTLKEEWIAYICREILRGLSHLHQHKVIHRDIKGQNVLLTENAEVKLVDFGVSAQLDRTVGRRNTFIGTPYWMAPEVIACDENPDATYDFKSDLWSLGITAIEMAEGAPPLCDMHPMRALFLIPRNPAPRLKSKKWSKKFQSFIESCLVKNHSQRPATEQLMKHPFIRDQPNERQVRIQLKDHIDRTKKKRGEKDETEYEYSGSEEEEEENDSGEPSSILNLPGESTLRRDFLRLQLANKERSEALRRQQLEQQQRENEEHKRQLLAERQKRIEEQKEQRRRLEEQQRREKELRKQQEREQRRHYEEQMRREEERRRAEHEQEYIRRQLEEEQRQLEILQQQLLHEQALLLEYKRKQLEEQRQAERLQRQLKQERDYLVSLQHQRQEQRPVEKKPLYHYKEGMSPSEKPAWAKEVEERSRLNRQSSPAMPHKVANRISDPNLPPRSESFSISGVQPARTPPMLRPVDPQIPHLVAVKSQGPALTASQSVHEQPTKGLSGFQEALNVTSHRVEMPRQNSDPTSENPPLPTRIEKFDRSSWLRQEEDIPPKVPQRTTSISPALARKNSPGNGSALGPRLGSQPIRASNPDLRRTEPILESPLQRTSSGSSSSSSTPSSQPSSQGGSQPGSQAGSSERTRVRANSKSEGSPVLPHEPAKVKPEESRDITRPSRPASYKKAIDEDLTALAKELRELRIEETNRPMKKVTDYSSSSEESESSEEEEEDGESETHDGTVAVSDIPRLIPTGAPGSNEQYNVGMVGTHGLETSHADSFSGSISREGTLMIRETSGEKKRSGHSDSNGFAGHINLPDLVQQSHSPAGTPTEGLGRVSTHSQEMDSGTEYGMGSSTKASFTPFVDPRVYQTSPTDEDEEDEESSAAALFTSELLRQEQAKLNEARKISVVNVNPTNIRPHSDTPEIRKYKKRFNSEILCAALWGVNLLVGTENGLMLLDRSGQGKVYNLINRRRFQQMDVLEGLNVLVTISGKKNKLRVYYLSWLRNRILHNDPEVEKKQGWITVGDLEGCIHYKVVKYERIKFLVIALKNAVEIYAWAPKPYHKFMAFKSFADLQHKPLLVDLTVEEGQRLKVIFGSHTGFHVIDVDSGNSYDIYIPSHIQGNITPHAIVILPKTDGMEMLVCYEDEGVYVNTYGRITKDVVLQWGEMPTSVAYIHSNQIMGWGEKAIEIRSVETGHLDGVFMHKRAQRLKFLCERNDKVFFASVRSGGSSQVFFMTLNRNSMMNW", "UniProt P28908": "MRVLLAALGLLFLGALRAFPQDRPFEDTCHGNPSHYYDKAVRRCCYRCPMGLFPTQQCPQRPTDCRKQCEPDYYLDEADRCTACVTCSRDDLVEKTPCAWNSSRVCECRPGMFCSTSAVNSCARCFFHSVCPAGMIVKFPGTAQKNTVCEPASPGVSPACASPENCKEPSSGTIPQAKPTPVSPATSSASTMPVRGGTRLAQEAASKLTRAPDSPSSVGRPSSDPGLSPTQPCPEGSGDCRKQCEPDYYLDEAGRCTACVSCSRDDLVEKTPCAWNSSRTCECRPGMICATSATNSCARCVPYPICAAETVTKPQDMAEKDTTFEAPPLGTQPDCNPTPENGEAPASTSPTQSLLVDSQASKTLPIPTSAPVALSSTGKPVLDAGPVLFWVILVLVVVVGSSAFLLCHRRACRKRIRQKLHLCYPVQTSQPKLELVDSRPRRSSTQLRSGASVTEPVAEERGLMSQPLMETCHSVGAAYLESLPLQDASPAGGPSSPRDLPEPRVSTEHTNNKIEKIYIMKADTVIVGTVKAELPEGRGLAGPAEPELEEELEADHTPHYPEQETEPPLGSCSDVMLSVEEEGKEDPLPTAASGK", "UniProt P36406": "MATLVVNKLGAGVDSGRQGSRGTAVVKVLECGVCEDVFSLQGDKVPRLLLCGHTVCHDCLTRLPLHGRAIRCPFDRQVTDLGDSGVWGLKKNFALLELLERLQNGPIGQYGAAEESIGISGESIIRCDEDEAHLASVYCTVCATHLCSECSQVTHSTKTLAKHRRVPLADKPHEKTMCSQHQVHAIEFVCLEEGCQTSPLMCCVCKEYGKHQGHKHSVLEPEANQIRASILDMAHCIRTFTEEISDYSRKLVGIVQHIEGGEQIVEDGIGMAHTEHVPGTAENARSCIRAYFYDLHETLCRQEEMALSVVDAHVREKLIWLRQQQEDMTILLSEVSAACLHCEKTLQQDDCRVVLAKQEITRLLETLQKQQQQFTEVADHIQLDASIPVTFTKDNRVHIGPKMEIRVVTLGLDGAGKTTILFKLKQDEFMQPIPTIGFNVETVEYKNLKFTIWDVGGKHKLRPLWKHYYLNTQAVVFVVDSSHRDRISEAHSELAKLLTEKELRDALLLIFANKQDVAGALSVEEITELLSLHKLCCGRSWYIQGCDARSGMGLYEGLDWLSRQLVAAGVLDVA"}, "source": "the supplement of paper PMC10849652", "note": "This is one part of the list."}
{"compound": "CC[C@@H]1C(=O)N(C)c2cnc(Nc3ccc(C(=O)N[C@H]4CC[C@H](N5CCN(CC6CC6)CC5)CC4)cc3OC)nc2N1C(C)C [volasertib]", "assay": "log2 fold change, soluble protein after heating vs DMSO (PISA); higher = thermal stabilisation; K562 cells, 10 uM, 30 min; active = over 0.2 and 3.5 SD of the protein, either way, in both replicates (recomputed)", "procedure,_shortened": "(§1)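 K562 cells (2×10^6 cells/mL) were treated with 10 μM compound for 30 min, and aliquots were heated for 3 min over 48°C-58°C. Pooled aliquots were extracted in PBS with 0.5% NP-40 at 4°C, and the supernatant after 21,000xg for 90 min was measured by TMTpro 16plex LC-MS/MS with channel sums equalised. Reported thermal stability, relative to control samples and from duplicates, is a log2 fold change.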"}
{"target": "TRIM28 (UniProt Q13263)", "log2 fold change": "active: -0.222"}
{"target": "TPM2 (UniProt P07951)", "log2 fold change": "inactive: 0.173"}
{"target": "TNPO2 (UniProt O14787)", "log2 fold change": "active: -0.36"}
{"target": "TOMM5 isoform 2 (UniProt Q8N4H5)", "log2 fold change": "inactive: -0.032"}
{"target": "TRMT10A (UniProt Q8TBZ6)", "log2 fold change": "inactive: -0.013"}
{"target": "TSC1 (UniProt Q92574)", "log2 fold change": "inactive: -0.463"}
{"target": "TRAM1 (UniProt Q15629)", "log2 fold change": "inactive: -0.161"}
{"target": "TSEN2 (UniProt Q8NCE0)", "log2 fold change": "inactive: -0.146"}
{"target": "TOM1L1 (UniProt O75674)", "log2 fold change": "inactive: -0.052"}
{"target": "TNPO1 (UniProt Q92973)", "log2 fold change": "active: -0.379"}
{"target": "TRAM2 (UniProt Q15035)", "log2 fold change": "inactive: -0.27"}
{"target": "TRIM44 (UniProt Q96DX7)", "log2 fold change": "inactive: -0.028"}
{"target": "TOR1AIP1 (UniProt Q5JTV8)", "log2 fold change": "inactive: -0.146"}
{"target": "TRABD (UniProt Q9H4I3)", "log2 fold change": "inactive: 0.215"}
{"target": "TRMT2B (UniProt Q96GJ1)", "log2 fold change": "inactive: 0.055"}
{"target": "TRIM4 (UniProt Q9C037)", "log2 fold change": "inactive: -0.042"}
{"target": "TRIP10 (UniProt Q15642)", "log2 fold change": "inactive: -0.11"}
{"target": "TNIP1 (UniProt Q15025)", "log2 fold change": "inactive: -0.237"}
{"target": "TRAPPC6A isoform 2 (UniProt O75865)", "log2 fold change": "inactive: -0.269"}
{"target": "TRAPPC1 (UniProt Q9Y5R8)", "log2 fold change": "inactive: -0.099"}
{"target": "TNIK isoform 3 (UniProt Q9UKE5)", "log2 fold change": "inactive: 0"}
{"target": "TRMT10C (UniProt Q7L0Y3)", "log2 fold change": "active: -0.416"}
{"target": "TP53BP1 isoform 2 (UniProt Q12888)", "log2 fold change": "inactive: -0.072"}
{"target": "TOMM20 (UniProt Q15388)", "log2 fold change": "inactive: -0.075"}
{"target": "TRAPPC3 (UniProt O43617)", "log2 fold change": "inactive: -0.118"}
{"target": "TSC2 (UniProt P49815)", "log2 fold change": "inactive: -0.23"}
{"target": "TNFRSF8 (UniProt P28908)", "log2 fold change": "inactive: 0.011"}
{"target": "TRPM7 (UniProt Q96QT4)", "log2 fold change": "inactive: -0.069"}
{"compound": "CC[C@H](C)N1C=C(C2=C(C=C(C=C21)C3=CN=C(C=C3)N4CCNCC4)C(=O)NCC5=C(C=C(NC5=O)C)C)C", "assay": "log2 fold change, soluble protein after heating vs DMSO (PISA); higher = thermal stabilisation; K562 cells, 10 uM, 30 min; active = over 0.2 and 3.5 SD of the protein, either way, in both replicates (recomputed)", "procedure,_shortened": "as §1"}
{"target": "TRIM23 (UniProt P36406)", "log2 fold change": "inactive: 0.049"}
{"target": "TRIM28 (UniProt Q13263)", "log2 fold change": "inactive: 0.052"}
{"target": "TPM2 (UniProt P07951)", "log2 fold change": "inactive: 0.069"}
{"target": "TRIO (UniProt O75962)", "log2 fold change": "inactive: -0.007"}
{"target": "TNPO2 (UniProt O14787)", "log2 fold change": "inactive: 0.106"}
{"target": "TOR1AIP2 (UniProt Q9H496)", "log2 fold change": "inactive: -0.044"}
{"target": "TRMT5 (UniProt Q32P41)", "log2 fold change": "inactive: -0.095"}
{"target": "TOMM5 isoform 2 (UniProt Q8N4H5)", "log2 fold change": "inactive: -0.049"}
{"target": "TRMT10A (UniProt Q8TBZ6)", "log2 fold change": "inactive: 0.033"}
{"target": "TRAM1 (UniProt Q15629)", "log2 fold change": "inactive: 0.031"}
{"target": "TSEN2 (UniProt Q8NCE0)", "log2 fold change": "inactive: 0.053"}
{"target": "TOM1L1 (UniProt O75674)", "log2 fold change": "inactive: 0.027"}
{"target": "TNPO1 (UniProt Q92973)", "log2 fold change": "inactive: 0.046"}
{"target": "TRIP12 isoform 3 (UniProt Q14669)", "log2 fold change": "inactive: 0.034"}
{"target": "TRIM44 (UniProt Q96DX7)", "log2 fold change": "inactive: -0.024"}
{"target": "TOR1AIP1 (UniProt Q5JTV8)", "log2 fold change": "inactive: 0.078"}
{"target": "TRABD (UniProt Q9H4I3)", "log2 fold change": "inactive: 0"}
{"target": "TRMT2B (UniProt Q96GJ1)", "log2 fold change": "inactive: -0.038"}
{"target": "TRIM4 (UniProt Q9C037)", "log2 fold change": "inactive: 0.178"}
{"target": "TRIP10 (UniProt Q15642)", "log2 fold change": "inactive: 0.047"}
{"target": "TRAPPC6A isoform 2 (UniProt O75865)", "log2 fold change": "inactive: 0.034"}
{"target": "TRAPPC1 (UniProt Q9Y5R8)", "log2 fold change": "inactive: -0.003"}
{"target": "TRMT10C (UniProt Q7L0Y3)", "log2 fold change": "inactive: 0.07"}
{"target": "TP53BP1 isoform 2 (UniProt Q12888)", "log2 fold change": "inactive: 0.021"}
{"target": "TOMM20 (UniProt Q15388)", "log2 fold change": "inactive: -0.068"}
{"target": "TRAPPC3 (UniProt O43617)", "log2 fold change": "inactive: -0.02"}
{"target": "TNFRSF8 (UniProt P28908)", "log2 fold change": "inactive: -0.034"}
